Hit rate of the full screen: of about 340,000 compounds, about 170 (0.05%) were called active. The inconclusive results got no clear call from the source; some entries with a clear call stand among them for comparison. Calls follow the shape of the dose curve; as a rule, active = well fitted inhibition curve with a large enough effect in the signal ratio, with a control signal flat (not every such curve was filed as active); inconclusive = small, poorly fitted or top-dose-only effect, or effect the other way, or a change in a side signal; inactive = flat fitted curve, though single readings scatter; the % refers to the signal ratio. Where the call is inconclusive, the potency comes from a doubtful curve fit.
test: qHTS Assay to Find Inhibitors of Chronic Active B-Cell Receptor Signaling; conditions: ABC-DLBCL IkBa-CBG/CBR reporter, luminescence ratio (green luciferase fused to IkBa over red control in TMD8 lymphoma cells), 4 h; activity change, negative = inhibition: at 46.1 µM (top of the series);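 as to activity change, negative = inhibition: plate controls were basal doxycycline-induced cells for no effect and cells given 10 µM MG132 for full effect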
Procedure, shortened: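 Cell line TMD8 (human ABC DLBCL), stably expressing tet-inducible CBG68-IkBa fusion and CBR; IMDM/0.5% FBS; cpd up to 46 uM; dox induction, 4 h, 37C/5% CO2; dual luminescence; green/red ratio; MG132 control.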
Potency is read from the fitted curve at half-maximal effect.

SMILES	activity change, negative = inhibition	Potency
CN(Cc1ccccc1NS(=O)(=O)c1ccc(Cl)cc1)C1CCCCC1	inconclusive: 7.43%	
O=C(NCc1cccnc1)c1ccc(NS(=O)(=O)c2cccc([N+](=O)[O-])c2)cc1		inconclusive: 16.4 µM [rising, partial curve, poor fit]
CCOC(=O)c1cnc2c(C(=O)OCC)cnn2c1N	inconclusive: 6.32%	
COc1ccc(Nc2nc(CN3CCOCC3)nc3sc4c(c23)CCC(C)C4)cc1OC (centres undefined)	inconclusive: -0.366%	
O=C(CCN1C(=O)S/C(=C\C=C\c2ccccc2)C1=O)Nc1ccc(O)cc1	inactive: -14.6%	
COc1ccc(C2CC(=O)Nc3sc(=N)c4c(N)c(C#N)c(N)nc4c32)cc1OC (centres undefined)		inconclusive: 10 µM [falling, partial curve, poor fit]
Cc1nc(N2CCN(C(=O)COc3ccccc3)CC2)c2c(C)c(C)sc2n1	inactive: 2.47%	
Cc1nc2ccccc2c(=O)n1/N=C/c1ccncc1	inconclusive: -1.33%	
O=C(Nc1cccc(S(=O)(=O)N2CCCCCC2)c1)c1ccc(Cl)nc1	inconclusive: 5.28%	
CC(C)Oc1ccc(C(=O)NC2CCCCC2)cc1		inconclusive: 10.3 µM [falling, partial curve]
CC1=CC(C2CC(=O)N(c3ccccc3C)C2=O)CC2C(=O)N(c3ccccc3C)C(=O)C12 (centres undefined)	inactive: -0.257%	
O=c1cc(-c2ccccc2)nc(SCc2ccc(F)cc2)[nH]1	inactive: 0.378%	
CCc1[nH]nc2c1C(c1cccc(OC(=O)N3CCOCC3)c1)C(C#N)=C(N)O2 (centres undefined)	inconclusive: 3.46%	
CCOC(=O)Cc1cc(=O)n2[nH]c(-c3ccc(C)cc3)cc2n1		inconclusive: 29.1 µM [falling, single point]
Cn1nnnc1SCc1nc2scc(-c3ccc(Cl)cc3)c2c(=O)[nH]1	inconclusive: 14.7%	
O=C(O/N=C(\c1ccccc1)c1ccccn1)c1cccc2ccccc12		inconclusive: 6.51 µM [rising, full curve]
COc1ccc(-c2cn(-c3ccc(SC(F)F)cc3)c3[n+]2CCC3)cc1OC	inconclusive: -0.382%	
CC1=NN(C(=O)c2cccc(Cn3nc(C)c([N+](=O)[O-])c3C)c2)C(O)(C(F)(F)F)C1 (centres undefined)	inactive: -0.769%	
CN(C)/C=C(\C#N)C(=O)N/N=C(\CC(=O)C(F)(F)F)c1ccco1	inconclusive: 0.423%	
CCOC(=O)N1CCC(n2c(=S)[nH]c3cc(OCC)c(OCC)cc3c2=O)CC1	inactive: 2.13%	
CCOc1ccc(-n2nnnc2SCC(=O)c2ccccc2)cc1	inconclusive: -24.9%	
Cc1c(C(=O)OC2CCCCC2)sc2nc[nH]c(=O)c12	inconclusive: 1.89%	
COc1ccc2[nH]c(CN3CCN(CC=C(C)C)C(CCO)C3)c(C)c2c1 (centres undefined)	inactive: -0.102%	
Cc1cc2c(cc1C)NC(c1c(C)n(C)n(-c3ccccc3)c1=O)C1=C(CC(C)(C)CC1=O)N2 (centres undefined)	inconclusive: -0.321%	
CCN(CC)CCN(Cc1cc2cc3c(cc2[nH]c1=O)OCCO3)C(=S)NCC1CCCO1 (centres undefined)		inconclusive: 4.47 µM [falling, full curve, poor fit]

SMILES	activity change, negative = inhibition	Potency
CCOC(=O)c1c(NC(=O)c2ccc(N3C(=O)[C@@H]4[C@H](C3=O)[C@H]3C=C[C@@H]4C3)cc2)sc2c1CCCC2	inactive: 8.13%	
CC(C)(C)NS(=O)(=O)c1cccc(S(=O)(=O)c2cccc(S(=O)(=O)NC(C)(C)C)c2)c1	inconclusive: 10.6%	
CCN(C(=O)C(=O)c1c[nH]c2ccccc12)c1ccccc1		inconclusive: 10 µM [falling, partial curve]
CCCCCC(=O)Nc1ccc(-c2csc(C)n2)cc1	inactive: 14.5%	
O=C(COC(=O)[C@H](Cc1ccccc1)NC(=O)c1cccs1)NC1CCCCC1		inconclusive: 23.1 µM [falling, single point]
CC(C)CCn1cnc2c(cnn2-c2ccc(Cl)cc2)c1=O	inconclusive: 1.11%	
NCCCC[C@@H]1NC(=O)c2cc([N+](=O)[O-])cc(I)c2SC[C@@H](C(N)=O)NC(=O)[C@H](Cc2ccc(O)cc2)NC1=O	inconclusive: 5.62%	
Brc1ccc(N=C/C=C/C=C/Nc2ccc(Br)cc2)cc1	inconclusive: -10.4%	
O=S1(=O)[C@H]2C[C@H](CO)O[C@@]2(CO)CN1Cc1ccc(-c2ccc(F)cc2)cc1	inconclusive: -12.2%	
Cc1ccc(-c2nc3c(c(=O)[nH]c(=O)n3Cc3ccccc3)n2C)o1	inconclusive: 1.24%	
CC(C)C1O/C(=N/C(=O)Nc2ccc(Cl)c(Cl)c2)NC1=O (centres undefined)	inconclusive: 19.9%	
CCc1ccccc1NC(=S)NC1CC2CCC(C1)N2Cc1ccco1 (centres undefined)	inactive: -3.77%	
O=C(COc1cccnc1[N+](=O)[O-])Nc1ccc(Cl)c(S(=O)(=O)N2CCOCC2)c1		inconclusive: 8.91 µM [falling, partial curve]
Cc1ccc(C(=O)C(C)OC(=O)CCN2C(=O)C3C4C=CC(C5CC45)C3C2=O)cc1 (centres undefined)	inconclusive: 2.07%	
Cc1ccccc1-n1c(SCc2cc(=O)n3ccccc3n2)nc2[nH]ncc2c1=O		inconclusive: 12.6 µM [falling, partial curve, poor fit]
COc1ccc(C(CNC(=O)c2cccc(NS(=O)(=O)c3ccc(Br)cc3)c2)N(C)C)cc1 (centres undefined)	inconclusive: -14.1%	
C/C(=N\Nc1nc2ccccc2[nH]1)c1ccccn1		inconclusive: 35.5 µM [rising, single point]
COc1ccc(C(CNC(=O)c2oc3ccc(OC)cc3c2C)N2CCCC2)cc1 (centres undefined)	inactive: -20%	
Cc1nn(-c2ccc(F)cc2)c2c1cc(C#N)c1nc3ccccc3n12	inconclusive: 0.116%	
COCCOc1ccc(C(F)(F)F)cc1NC(=O)CN1C(=O)NC2(CCc3ccccc32)C1=O (centres undefined)		inconclusive: 29.1 µM [falling, single point]
O=C(Nc1ccc(OC(F)(F)F)cc1)c1ccccc1-n1cnnn1	inconclusive: 0.355%	
N#Cc1cc2cc3c(cc2nc1SCC(=O)OC1CCCCC1)OCO3	inactive: -0.127%	
CC(C)(C)c1cc(/C=N/NC(=O)C[n+]2ccccc2)cc(C(C)(C)C)c1O	inactive: -2.29%	
O=C(Nc1ccc(-n2cccc2)cc1)C1CC1	inconclusive: -13.1%	

Taken from above:
Value of COc1ccc(C(CNC(=O)c2oc3ccc(OC)cc3c2C)N2CCCC2)cc1 (centres undefined) under activity change, negative = inhibition: inactive: -20%
Value of CCCCCC(=O)Nc1ccc(-c2csc(C)n2)cc1 under activity change, negative = inhibition: inactive: 14.5%
Value of NCCCC[C@@H]1NC(=O)c2cc([N+](=O)[O-])cc(I)c2SC[C@@H](C(N)=O)NC(=O)[C@H](Cc2ccc(O)cc2)NC1=O under activity change, negative = inhibition: inconclusive: 5.62%
Value of Cc1ccc(-c2nc3c(c(=O)[nH]c(=O)n3Cc3ccccc3)n2C)o1 under activity change, negative = inhibition: inconclusive: 1.24%

Source: PubChem BioAssay AID493014 (National Center for Advancing Translational Sciences (NCATS), 2011)
